Data from publication PMC3527430 (PLoS ONE, 2012).

Assay: general procedure: solution-phase peptide synthesis; EDC/HOAt with NMM; PyBOP for some segment condensations

Q: For Cbz-A'B-OtBu, which step yield (coupling step, run 1) is on record?
A: The step yield was 86%.

Q: And the step yield (coupling step, run 2)?
A: Its step yield is 89%.

Q: With Ac-Aib1-Pro2-Aib3-Ala4-Aib5-OtBu as the substance, how does the step yield (coupling step) read?
A: The step yield was 53%.

Q: Which step yield (coupling step) does the source give for Cbz-[Aib]V[Aib]GL[Aib]-OtBu here?
A: The step yield was 77%.

Q: Which step yield (coupling step) does the source give for Cbz-CD-Phe-ethanolamine-TBDMS here?
A: The step yield was 55%.

Q: With Cbz-V[Aib]GL[Aib]-OtBu as the substance, how does the step yield (coupling step) read?
A: Its step yield is 86%.

Q: For Cbz-[Aib]GL[Aib]-OtBu, which step yield (coupling step) is on record?
A: Its step yield is 86%.

Q: For Cbz-C^3-OtBu, which step yield (coupling step) is on record?
A: Its step yield is 88%.

Q: With “Ac-Aib1-Pro2-Aib3-Ala4-Aib5-Ala6-Glu(OMe)7-Aib8-Val9-Aib10-Gly11-Leu12-Aib13-Pro14-Val15-Aib16-Aib17-Glu(OMe)18-Glu(OMe)19-Alaol20-Boc (ABCD-Alaol-Boc)” as the substance, how does the step yield (late stage modification step) read?
A: Its step yield is 11%.

Q: Which step yield (coupling step) does the source give for Cbz-B-OtBu here?
A: Its step yield is 85%.

Q: With “Ac-Aib1-Pro2-Aib3-Ala4-Aib5-Ala6-Glu(OMe)7-Aib8-Val9-Aib10-Gly11-Leu12-Aib13-Pro14-Val15-Aib16-Aib17-Glu(OMe)18-Glu(OMe)19-Phaol20-N6-Boc (ABC^3D^2-N6-Boc)” as the substance, how does the step yield (coupling step) read?
A: The step yield was 33%.

Q: For “Cbz-Pro14-Val15-Aib16-Aib17-Glu(OMe)18-Glu(OMe)19-Phaol20-N3-Boc (Cbz-C^3D^2-Phaol-N6-Boc)”, which step yield (coupling step) is on record?
A: Its step yield is 79%.

Q: Which step yield (coupling step) does the source give for Cbz-E(OMe)[Aib]V[Aib]GL[Aib]-OtBu here?
A: The step yield was 85%.

Q: Which step yield (coupling step) does the source give for “Cbz-Aib5-Ala6-Glu(OMe)7-Aib8-Val9-Aib10-Gly11-Leu12-Aib13-Pro14-Val15-Aib16-Aib17-Glu(OMe)18-Glu(OMe)19-Phaol20-N6-Boc (Cbz-BC^3D^2-Phaol-N6-Boc)” here?
A: Its step yield is 27%.

Q: For Cbz-A’BC^3-OtBu, which step yield (coupling step) is on record?
A: Its step yield is 41%.

Q: Which step yield (coupling step) does the source give for Cbz-P[Aib]A[Aib]-OtBu here?
A: The step yield was 85%.

Square brackets hold non-standard residues; d marks the D form. * marks the point of attachment. Cbz = O=C(OCc1ccccc1)*; Aib = CC(C)(N)C(=O)O; OtBu = CC(C)(C)O*
